# Laboratory results from patent publication US20260008757A1, “N-(3-(AMINOMETHYL)-PHENYL)-5-(4-PHENYL)-5-(TRIFLUOROMETHYL)-4,5-DIHYDROISOXAZOL-3-AMINE DERIVATIVES AND SIMILAR COMPOUNDS AS PESTICIDES” (BASF SE, priority 2022, published 2026).
# Read-outs that look alike come from different tables or passages of the source. Some results were stated once for a whole list of compounds, not compound by compound.
# What was measured:
# Assay type in all cases: in vivo
# Heliothis virescens = test: Tobacco Budworm (Heliothis virescens) egg and larval mortality, microtiter plate diet test; details: 2500 ppm; egg and larval mortality after 5 days
# Method: For evaluating control of Tobacco Budworm, the test unit consisted of 96-well-microtiter plates containing an insect diet and 15-25 H. virescens eggs. The compounds were formulated using a solution containing 75% v/v water and 25% v/v DMSO. Different concentrations of formulated compounds were sprayed onto the insect diet at 10 μl, using a custom-built micro atomizer, at two replications. After application, microtiter plates were incubated at about 28±1° C. and about 80±5% relative humidity for 5 days. Egg and larval mortality was then visually assessed.
# Plutella xylostella = test: Diamond Back Moth (Plutella xylostella) egg and larval mortality, microtiter plate diet test; details: egg and larval mortality after 5 days
# Anthonomus grandis = test: Boll weevil (Anthonomus grandis) egg and larval mortality, microtiter plate diet test; details: 800 ppm; egg and larval mortality after 5 days
# Method: For evaluating control of boll weevil, the test unit consisted of 96-well-microtiter plates containing an insect diet and 5-10 A. grandis eggs.
# The compounds were formulated using a solution containing 75% v/v water and 25% v/v DMSO. Different concentrations of formulated compounds were sprayed onto the insect diet at 5 μl, using a custom-built micro atomizer, at two replications.
# After application, microtiter plates were incubated at about 25±1° C. and about 75±5% relative humidity for 5 days. Egg and larval mortality were then visually assessed.
# Aedes aegypti = details: larval mortality after 2 days
Compound,mortality in comparison with untreated controls (Heliothis virescens),mortality in comparison with untreated controls (Plutella xylostella; 2500 ppm),mortality in comparison with untreated controls (Anthonomus grandis),mortality in comparison with untreated controls (Aedes aegypti; 2500 ppm),mortality in comparison with untreated controls (Plutella xylostella; 800 ppm),mortality in comparison with untreated controls (Aedes aegypti; 800 ppm)
CCC(=O)NCc1ccc(NC2=NOC(c3cc(Cl)cc(Cl)c3)(C(F)(F)F)C2)cc1F (stereo not shown) [I-1],at least 75%,,,,,
COC(=O)N1CCCC1C(=O)NCc1cc(NC2=NOC(c3cc(Cl)cc(Cl)c3)(C(F)(F)F)C2)ccc1F (stereo not shown) [I-10],,at least 75%,at least 75%,at least 75%,,
O=C(CC1OCCO1)NCc1cc(NC2=NOC(c3ccc(F)c(Cl)c3)(C(F)(F)F)C2)ccc1Cl (stereo not shown) [I-33],,,at least 75%,,at least 75%,at least 75%
N#Cc1ccc(C(=O)NCc2cc(NC3=NOC(c4ccc(F)c(Cl)c4)(C(F)(F)F)C3)ccc2Cl)s1 (stereo not shown) [I-34],,,at least 75%,,at least 75%,at least 75%
Cn1ncc(C#N)c1C(=O)NCc1cc(NC2=NOC(c3ccc(F)c(Cl)c3)(C(F)(F)F)C2)ccc1Cl (stereo not shown) [I-37],,,,,at least 75%,at least 75%
O=C(Cn1cccn1)NCc1cc(NC2=NOC(c3ccc(F)c(Cl)c3)(C(F)(F)F)C2)ccc1Cl (stereo not shown) [I-38],,,at least 75%,,at least 75%,at least 75%
CNC(=O)c1cccc(C(=O)NCc2cc(NC3=NOC(c4cc(Cl)cc(Cl)c4)(C(Cl)Cl)C3)ccc2Cl)c1 (stereo not shown) [I-81],,at least 75%,at least 75%,at least 75%,,
O=C(Cn1ccnc1)NCc1cc(NC2=NOC(c3cc(Cl)cc(Cl)c3)(C(Cl)Cl)C2)ccc1Cl (stereo not shown) [I-84],at least 75%,,at least 75%,at least 75%,,
O=C(NC1CCc2ccc(NC3=NOC(c4ccc(F)c(Cl)c4)(C(F)(F)F)C3)cc21)C1CC1 (stereo not shown) [III-2],,,,,at least 75%,
